Results: the supplement of paper PMC12819154, “High-throughput peptide-centric local stability assay extends protein–ligand identification to membrane proteins, tissues and bacteria” (Nature Structural & Molecular Biology, 2025)
The other results are listed elsewhere or left out. Most values lie at the level of the controls, where differences are scatter.

The chains behind the UniProt entries cited, without tags or fusion partners. Where a name states a change or a piece, a line headed by the entry shows the natural chain unless it says otherwise.
UniProt Q9UGU5: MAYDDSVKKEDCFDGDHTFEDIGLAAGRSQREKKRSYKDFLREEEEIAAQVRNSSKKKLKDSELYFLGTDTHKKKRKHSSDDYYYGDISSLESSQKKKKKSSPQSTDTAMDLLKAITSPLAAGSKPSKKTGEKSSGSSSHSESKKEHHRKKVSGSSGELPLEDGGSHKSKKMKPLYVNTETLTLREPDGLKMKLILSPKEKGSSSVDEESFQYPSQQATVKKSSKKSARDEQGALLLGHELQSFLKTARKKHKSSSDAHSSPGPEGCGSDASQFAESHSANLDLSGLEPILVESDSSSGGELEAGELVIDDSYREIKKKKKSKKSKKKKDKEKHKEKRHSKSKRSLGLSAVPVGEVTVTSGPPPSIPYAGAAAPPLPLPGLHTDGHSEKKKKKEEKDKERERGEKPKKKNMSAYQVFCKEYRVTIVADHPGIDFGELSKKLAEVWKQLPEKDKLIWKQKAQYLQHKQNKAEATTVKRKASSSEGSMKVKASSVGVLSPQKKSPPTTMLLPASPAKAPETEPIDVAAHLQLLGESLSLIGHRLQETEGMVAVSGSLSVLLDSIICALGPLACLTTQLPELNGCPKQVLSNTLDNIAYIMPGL
UniProt Q9UHR4: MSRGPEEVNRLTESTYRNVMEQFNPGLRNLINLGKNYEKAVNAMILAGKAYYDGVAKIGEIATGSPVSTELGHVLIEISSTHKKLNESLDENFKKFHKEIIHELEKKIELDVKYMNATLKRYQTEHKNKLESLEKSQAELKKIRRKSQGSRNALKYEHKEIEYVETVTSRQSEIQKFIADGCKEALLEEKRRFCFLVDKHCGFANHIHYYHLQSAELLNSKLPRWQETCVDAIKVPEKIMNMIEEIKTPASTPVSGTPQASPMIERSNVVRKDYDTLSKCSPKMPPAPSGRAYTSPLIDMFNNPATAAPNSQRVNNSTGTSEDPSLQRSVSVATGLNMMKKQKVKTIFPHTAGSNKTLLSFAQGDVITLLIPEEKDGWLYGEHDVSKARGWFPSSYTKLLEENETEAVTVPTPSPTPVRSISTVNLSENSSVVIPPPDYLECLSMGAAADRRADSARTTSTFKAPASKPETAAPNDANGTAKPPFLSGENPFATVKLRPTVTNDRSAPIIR
UniProt Q9UJX3, whole entry: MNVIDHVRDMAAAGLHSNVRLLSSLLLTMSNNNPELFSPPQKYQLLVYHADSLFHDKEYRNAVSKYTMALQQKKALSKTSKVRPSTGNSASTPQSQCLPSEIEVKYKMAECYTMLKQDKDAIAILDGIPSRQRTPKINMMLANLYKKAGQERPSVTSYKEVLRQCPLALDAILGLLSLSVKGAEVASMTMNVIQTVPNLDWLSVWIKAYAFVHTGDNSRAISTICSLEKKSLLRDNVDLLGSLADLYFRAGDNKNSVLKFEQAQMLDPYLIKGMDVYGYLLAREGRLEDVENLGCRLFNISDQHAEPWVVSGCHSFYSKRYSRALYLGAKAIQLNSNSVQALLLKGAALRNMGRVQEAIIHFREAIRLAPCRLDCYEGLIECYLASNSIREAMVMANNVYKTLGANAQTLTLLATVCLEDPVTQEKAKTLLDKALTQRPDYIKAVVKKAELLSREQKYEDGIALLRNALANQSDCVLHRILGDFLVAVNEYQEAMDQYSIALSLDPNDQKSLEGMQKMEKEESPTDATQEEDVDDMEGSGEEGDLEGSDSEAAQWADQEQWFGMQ
UniProt Q9UFW8: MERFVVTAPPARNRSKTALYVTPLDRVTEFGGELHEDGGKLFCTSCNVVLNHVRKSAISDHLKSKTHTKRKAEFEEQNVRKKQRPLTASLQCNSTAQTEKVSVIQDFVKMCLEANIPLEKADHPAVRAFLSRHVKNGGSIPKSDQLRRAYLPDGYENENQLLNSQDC
UniProt Q9UIC8: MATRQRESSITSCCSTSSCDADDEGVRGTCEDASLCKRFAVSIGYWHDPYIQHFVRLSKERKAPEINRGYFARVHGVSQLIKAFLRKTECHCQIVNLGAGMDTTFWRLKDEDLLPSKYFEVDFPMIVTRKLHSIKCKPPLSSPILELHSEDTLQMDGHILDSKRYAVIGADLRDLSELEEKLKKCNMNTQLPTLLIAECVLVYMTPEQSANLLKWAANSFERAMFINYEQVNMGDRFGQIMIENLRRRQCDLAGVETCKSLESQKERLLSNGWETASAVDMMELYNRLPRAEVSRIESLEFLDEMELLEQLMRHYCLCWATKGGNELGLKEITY
UniProt Q9UBW7: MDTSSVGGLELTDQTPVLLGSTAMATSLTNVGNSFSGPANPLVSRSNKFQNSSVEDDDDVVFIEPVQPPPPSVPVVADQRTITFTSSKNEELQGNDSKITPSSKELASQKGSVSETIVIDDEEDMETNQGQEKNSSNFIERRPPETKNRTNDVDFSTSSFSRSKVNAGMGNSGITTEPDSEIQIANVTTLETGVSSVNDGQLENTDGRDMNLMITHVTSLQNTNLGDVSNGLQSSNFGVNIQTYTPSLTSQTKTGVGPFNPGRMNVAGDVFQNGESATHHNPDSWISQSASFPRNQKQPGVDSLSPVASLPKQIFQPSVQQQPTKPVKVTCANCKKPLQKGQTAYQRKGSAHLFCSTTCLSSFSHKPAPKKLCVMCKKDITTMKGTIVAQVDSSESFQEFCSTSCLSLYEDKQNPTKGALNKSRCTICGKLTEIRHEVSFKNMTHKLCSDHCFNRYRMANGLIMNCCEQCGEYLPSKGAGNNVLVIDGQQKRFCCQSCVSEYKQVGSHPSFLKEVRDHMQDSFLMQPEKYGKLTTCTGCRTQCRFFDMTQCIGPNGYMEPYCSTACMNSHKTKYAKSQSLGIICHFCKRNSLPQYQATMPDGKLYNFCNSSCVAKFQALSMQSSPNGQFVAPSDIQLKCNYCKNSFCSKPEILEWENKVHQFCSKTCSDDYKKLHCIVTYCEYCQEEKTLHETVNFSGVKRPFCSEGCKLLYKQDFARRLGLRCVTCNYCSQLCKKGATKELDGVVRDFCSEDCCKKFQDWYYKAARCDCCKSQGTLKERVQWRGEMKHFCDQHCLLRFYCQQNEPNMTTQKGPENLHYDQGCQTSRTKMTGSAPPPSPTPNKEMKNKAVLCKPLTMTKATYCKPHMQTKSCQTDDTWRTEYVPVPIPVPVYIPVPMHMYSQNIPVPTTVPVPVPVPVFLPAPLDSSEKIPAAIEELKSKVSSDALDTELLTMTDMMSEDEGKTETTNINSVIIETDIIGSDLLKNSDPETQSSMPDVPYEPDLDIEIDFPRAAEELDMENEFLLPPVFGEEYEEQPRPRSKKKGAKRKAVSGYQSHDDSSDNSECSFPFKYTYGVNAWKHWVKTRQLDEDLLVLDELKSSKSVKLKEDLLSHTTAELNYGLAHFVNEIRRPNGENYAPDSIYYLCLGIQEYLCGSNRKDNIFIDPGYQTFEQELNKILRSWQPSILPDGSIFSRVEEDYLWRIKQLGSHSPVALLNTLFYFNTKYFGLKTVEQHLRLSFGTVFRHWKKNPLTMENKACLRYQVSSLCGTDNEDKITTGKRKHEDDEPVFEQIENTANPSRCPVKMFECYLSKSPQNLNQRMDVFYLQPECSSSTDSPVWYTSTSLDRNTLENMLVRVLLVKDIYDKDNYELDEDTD
UniProt Q9P2J5: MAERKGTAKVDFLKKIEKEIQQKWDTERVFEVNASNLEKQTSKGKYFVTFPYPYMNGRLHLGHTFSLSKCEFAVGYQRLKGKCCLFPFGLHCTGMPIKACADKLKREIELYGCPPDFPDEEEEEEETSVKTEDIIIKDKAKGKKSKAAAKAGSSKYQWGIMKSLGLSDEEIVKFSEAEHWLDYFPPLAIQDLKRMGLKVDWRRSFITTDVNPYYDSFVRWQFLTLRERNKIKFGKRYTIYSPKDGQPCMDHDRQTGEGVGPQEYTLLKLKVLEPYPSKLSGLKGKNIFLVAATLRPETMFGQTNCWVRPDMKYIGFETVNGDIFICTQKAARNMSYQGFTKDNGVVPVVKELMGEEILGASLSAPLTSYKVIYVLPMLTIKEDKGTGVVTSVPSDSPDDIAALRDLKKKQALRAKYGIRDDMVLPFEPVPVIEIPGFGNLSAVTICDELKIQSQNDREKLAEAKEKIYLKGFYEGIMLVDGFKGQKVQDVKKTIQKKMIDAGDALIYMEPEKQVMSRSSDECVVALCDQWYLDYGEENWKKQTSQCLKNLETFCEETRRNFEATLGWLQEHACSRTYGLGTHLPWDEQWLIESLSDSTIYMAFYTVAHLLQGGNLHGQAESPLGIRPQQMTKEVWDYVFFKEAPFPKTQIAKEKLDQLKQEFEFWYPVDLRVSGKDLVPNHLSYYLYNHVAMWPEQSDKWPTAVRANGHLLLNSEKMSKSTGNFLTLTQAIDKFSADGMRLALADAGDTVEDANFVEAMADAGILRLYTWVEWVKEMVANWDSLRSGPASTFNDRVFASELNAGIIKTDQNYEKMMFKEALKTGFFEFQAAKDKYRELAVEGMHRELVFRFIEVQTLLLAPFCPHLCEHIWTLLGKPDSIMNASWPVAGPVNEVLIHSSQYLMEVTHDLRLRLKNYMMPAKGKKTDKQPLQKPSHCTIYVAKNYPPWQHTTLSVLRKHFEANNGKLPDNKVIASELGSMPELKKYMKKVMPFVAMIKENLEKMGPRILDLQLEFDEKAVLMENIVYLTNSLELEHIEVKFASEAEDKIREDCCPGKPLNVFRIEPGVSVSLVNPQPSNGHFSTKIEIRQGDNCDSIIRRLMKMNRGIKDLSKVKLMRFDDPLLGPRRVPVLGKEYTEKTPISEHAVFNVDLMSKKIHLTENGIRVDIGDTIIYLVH
UniProt Q9P013: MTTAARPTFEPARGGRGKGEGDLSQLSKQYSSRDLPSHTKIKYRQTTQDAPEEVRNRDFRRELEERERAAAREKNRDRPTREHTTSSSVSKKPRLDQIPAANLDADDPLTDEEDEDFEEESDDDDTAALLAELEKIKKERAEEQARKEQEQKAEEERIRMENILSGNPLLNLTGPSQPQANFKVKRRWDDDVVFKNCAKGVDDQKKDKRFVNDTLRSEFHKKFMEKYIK
UniProt Q9UHR5: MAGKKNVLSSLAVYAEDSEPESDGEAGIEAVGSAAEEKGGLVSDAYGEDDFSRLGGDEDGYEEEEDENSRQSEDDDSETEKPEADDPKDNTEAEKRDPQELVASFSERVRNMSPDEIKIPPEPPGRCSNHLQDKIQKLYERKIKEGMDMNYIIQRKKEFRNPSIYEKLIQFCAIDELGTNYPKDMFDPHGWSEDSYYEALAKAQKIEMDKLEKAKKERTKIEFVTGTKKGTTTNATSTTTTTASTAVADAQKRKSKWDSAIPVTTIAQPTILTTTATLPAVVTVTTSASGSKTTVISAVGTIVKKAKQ

Compound: CN[C@@H]1C[C@H]2O[C@@](C)([C@@H]1OC)n1c3ccccc3c3c4c(c5c6ccccc6n2c5c31)C(=O)NC4 [staurosporine]
Assay: log2 fold change of tryptic peptide abundance, ligand vs vehicle (limited proteolysis) (log2 ratio); higher = more trypsin-susceptible (destabilized)
Conditions: ligand concentration: 20 uM; sample: K562 cleared lysate; digestion: 4 min, 22 C (HT-PELSA RT4min, Orbitrap Astral)

Target	log2 fold change
HMGXB4 (peptide sequence: DEQGALLLGHELQSFLK, peptide start residue: 230) (UniProt Q9UGU5)	-0.155
BAIAP2L1 (peptide sequence: SVSVATGLNMMKK, peptide start residue: 329) (UniProt Q9UHR4)	0.556
ANAPC7 (peptide sequence: DMAAAGLHSNVR, peptide start residue: 9) (UniProt Q9UJX3)	0.684
CGGBP1 (peptide sequence: LFCTSCNVVLNHVRK, peptide start residue: 41) (UniProt Q9UFW8)	-0.22
LCMT1 (peptide sequence: KTECHCQIVNLGAGMDTTFWR, peptide start residue: 87) (UniProt Q9UIC8)	-0.232
ZMYM2 (peptide sequence: HFCDQHCLLR, peptide start residue: 789) (UniProt Q9UBW7)	0.245
LARS (peptide sequence: VLEPYPSKLSGLK, peptide start residue: 271) (UniProt Q9P2J5)	0.457
CWC15 (peptide sequence: RRWDDDVVFK, peptide start residue: 186) (UniProt Q9P013)	-0.184
SAP30BP (peptide sequence: IPPEPPGR, peptide start residue: 119) (UniProt Q9UHR5)	-0.314

Given bar-delimited: entries from further up.
Target | log2 fold change
LARS (peptide sequence: VLEPYPSKLSGLK, peptide start residue: 271) (UniProt Q9P2J5) | 0.457
CWC15 (peptide sequence: RRWDDDVVFK, peptide start residue: 186) (UniProt Q9P013) | -0.184
